Experimental data published in PMC11607471, “E3 Ubiquitin Ligase Ring Finger Protein 2 Alleviates Cerebral Ischemia–Reperfusion Injury by Stabilizing Mesencephalic Astrocyte‐Derived Neurotrophic Factor Through Monoubiquitination” (CNS Neuroscience & Therapeutics, 2024).
These are yes or no findings as the source states them, for the method shown. For part of these data: In cells and extracts the contact can be indirect. Some binding calls cover weakened binding; strength is not graded here. For part of these data: Where a sequence is shown, tags or fusion partners need not be part of it.

By UniProt entry, the sequences of proteins in these tests, tags left out.
UniProt Q9CQJ4: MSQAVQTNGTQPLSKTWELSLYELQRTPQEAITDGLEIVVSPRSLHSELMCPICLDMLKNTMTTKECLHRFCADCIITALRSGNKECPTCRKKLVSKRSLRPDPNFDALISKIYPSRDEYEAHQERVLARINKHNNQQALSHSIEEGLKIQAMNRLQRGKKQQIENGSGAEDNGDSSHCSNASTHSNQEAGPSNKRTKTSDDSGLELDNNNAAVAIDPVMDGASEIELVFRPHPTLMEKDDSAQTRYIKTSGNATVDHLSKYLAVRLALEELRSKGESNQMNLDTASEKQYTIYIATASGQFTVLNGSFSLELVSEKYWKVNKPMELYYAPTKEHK
UniProt Q99496: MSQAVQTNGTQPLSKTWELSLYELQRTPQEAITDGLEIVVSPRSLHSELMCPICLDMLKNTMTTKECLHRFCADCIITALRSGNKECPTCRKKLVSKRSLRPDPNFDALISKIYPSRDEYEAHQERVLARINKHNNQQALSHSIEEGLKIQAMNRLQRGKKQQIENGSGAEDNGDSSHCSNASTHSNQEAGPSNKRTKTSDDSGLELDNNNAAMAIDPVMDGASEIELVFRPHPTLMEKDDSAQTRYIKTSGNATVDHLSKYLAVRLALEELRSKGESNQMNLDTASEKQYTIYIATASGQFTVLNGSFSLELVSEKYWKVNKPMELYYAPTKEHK

What was measured:
[1] = biological target: T1, mesencephalic astrocyte-derived neurotrophic factor (pGBKT7-MANF) (UniProt P55145); assay: two-hybrid; yeast two-hybrid screen for RNF2-interacting proteins; library and bait not told
T1 sequence: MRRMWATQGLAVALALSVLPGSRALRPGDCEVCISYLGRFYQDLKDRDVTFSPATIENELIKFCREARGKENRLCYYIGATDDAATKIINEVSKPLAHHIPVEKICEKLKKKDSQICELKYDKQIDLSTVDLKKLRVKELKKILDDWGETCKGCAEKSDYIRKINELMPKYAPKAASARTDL

[2] = biological target: T1, mesencephalic astrocyte-derived neurotrophic factor (pGBKT7-MANF); assay: two-hybrid; yeast back hybridization: pGBKT7-MANF and pGADT7-RNF2 co-transformed into yeast gold strain, growth and blue colour on QDO/X plates
[3] = biological target: Ring finger protein 2, endogenous in N2a cells (mouse (endogenous in N2a)) (UniProt Q9CQJ4); assay: co-IP; lysate of N2a cells stably expressing GFP-MANF; anti-RNF2 rabbit antibody on protein A/G beads, IgG as negative control; blots with anti-GFP and anti-RNF2

In the case of “Ring finger protein 2 (pGADT7-RNF2) (from UniProt Q99496 1-336)”, the binding [1] is reported as “binds” and the binding [2] is reported as “binds”.

B1: His-tagged human MANF (natural protein, UniProt P55145 25-182, looked up)
chain: LRPGDCEVCISYLGRFYQDLKDRDVTFSPATIENELIKFCREARGKENRLCYYIGATDDAATKIINEVSKPLAHHIPVEKICEKLKKKDSQICELKYDKQIDLSTVDLKKLRVKELKKILDDWGETCKGCAEKSDYIRKINELMPKYAPKAASARTDL
notes: human MANF; also called His-MANF; recombinant His-MANF; source: Escherichia coli BL-21, purified (Ni-NTA agarose)
For B1, the binding [3] was “binds”.
